# From PubChem BioAssay AID332 (DTP/NCI, 2004)
# The list does not hold the whole screen: it gathers tests that were run many times, whatever their T/C, doses with no T/C, and many T/C values between a quarter and a half above the control. Other doses and runs of a compound stand elsewhere. T/C gives the treated animals as a percentage of the vehicle group. Schedule codes are those of the source, taken here to give the interval after Q, in days (D) or hours (H), and the number of doses after X. Some entries were tested several times; their values stand side by side, smallest first. Some molecules as drawn cover several salts, stereoisomers or complexes of the source; a dose is that of the sample tested. Some T/C values carry the count of animals alive at the toxicity check (mostly the fifth day); where none is given, no animal had died by that day. Some doses have a count of surviving animals in place of a T/C: the source holds a T/C of zero for them, seemingly a mark for toxic or unscored doses. Survivors were counted at the toxicity check, usually on the fifth day, unless a day is given; later deaths do not show. Signs of the kind (2×) give the number of equal values in this list.
# Tested on: mice, ADJ-PC-20 plasma cell tumor sc, T/C %
# Assay: NCI In Vivo Anticancer Drug Screen. Data for tumor model ADJ-PC-20 Plasma Cell (subcutaneous) in unknown mice
# Conditions: T/C endpoint: mean tumor weight, higher T/C = larger tumour
# Experimental: The antitumor activity of compounds was measured in mice bearing transplantable tumors. Survival or tumor size were measured and the results are expressed as the measurement made in the treated group (T) divided by the measurement made in the vehicle treated control group (C). The tumor model used in this assay is ADJ-PC-20 Plasma Cell (subcutaneous) in unknown mice
# [1] = dose: 25.0 mg/kg/injection, schedule: Q01DX010 (ip), vehicle: saline, evaluated on day 21
# [2] = dose: 100.0 mg/kg/injection, schedule: Q01DX010 (ip), vehicle: saline
# [3] = dose: 200.0 mg/kg/injection, schedule: Q01DX010 (ip), vehicle: saline
# [4] = dose: 200.0 mg/kg/injection, schedule: Q01DX010 (ip), vehicle: carboxymethylcellulose (CMC)
compound,measurement,setting,value
Nc1nc(SCc2ccccc2)c2[nH]cnc2n1,T/C,"dose: 0.6 mg/kg/injection, schedule: Q01DX010 (ip), vehicle: carboxymethylcellulose (CMC), evaluated on day 21",140 % of control
same,survivor count,"dose: 18.75 mg/kg/injection, schedule: Q01DX010 (ip), vehicle: carboxymethylcellulose (CMC)",0 of 10
same,survivor count,"dose: 37.5 mg/kg/injection, schedule: Q01DX010 (ip), vehicle: carboxymethylcellulose (CMC)",0 of 10
C[C@]12CC[C@H](OC3OC(CO)C(O)C(O)C3O)C[C@H]1CC[C@@H]1[C@@H]2CC[C@]2(C)[C@@H](C3=CCOC3=O)CC[C@]12O (stereo partly drawn),survivor count,"dose: 1.0 mg/kg/injection, schedule: Q01DX010 (ip), vehicle: saline",0 of 10
same,survivor count,"dose: 2.0 mg/kg/injection, schedule: Q01DX010 (ip), vehicle: saline",0 of 10
same,survivor count,"dose: 4.0 mg/kg/injection, schedule: Q01DX010 (ip), vehicle: saline",0 of 10
same,survivor count,"dose: 8.0 mg/kg/injection, schedule: Q01DX010 (ip), vehicle: saline",0 of 10
same,survivor count,"dose: 500.0 micrograms/kg/injection, schedule: Q01DX010 (ip), vehicle: saline",3 of 10
CN(C)c1ccc(/C=C\c2ccnc3ccccc23)cc1,survivor count,"dose: 50.0 mg/kg/injection, schedule: Q01DX010 (ip), vehicle: water",0 of 10
same,survivor count,"dose: 50.0 mg/kg/injection, schedule: Q01DX011 (ip), vehicle: water",6 of 10
same,survivor count,"dose: 100.0 mg/kg/injection, schedule: Q01DX011 (ip), vehicle: water",0 of 10
same,survivor count,"dose: 200.0 mg/kg/injection, schedule: Q01DX011 (ip), vehicle: water",1 of 10
Nc1nc(N)c2nc(CNc3ccc(C(=O)NC(CCC(=O)O)C(=O)O)cc3)cnc2n1 (stereo not drawn),survivor count,"dose: 250.0 micrograms/kg/injection, schedule: Q01DX010 (ip), vehicle: alkali diluted with saline",4 of 10
same,survivor count,"dose: 500.0 micrograms/kg/injection, schedule: Q01DX010 (ip), vehicle: alkali diluted with saline",2 of 10
CC(=O)Nc1ccc2nc3ccc(NC(C)=O)cc3[n+](-c3ccccc3)c2c1,survivor count,"dose: 100.0 mg/kg/injection, schedule: Q01DX010 (ip), vehicle: carboxymethylcellulose (CMC)",0 of 6
CN(Cc1cnc2nc(N)nc(N)c2n1)c1ccc(C(=O)N[C@@H](CCC(=O)O)C(=O)O)cc1,T/C,"dose: 0.31 mg/kg/injection, schedule: Q01DX010 (ip), vehicle: other, evaluated on day 21","49 [7 of 10 alive], 90, 91, 102, 113 % of control"
same,survivor count,"dose: 0.62 mg/kg/injection, schedule: Q01DX010 (ip), vehicle: other",0 of 10
same,T/C,"dose: 1.25 mg/kg/injection, schedule: Q01DX010 (ip), vehicle: other, evaluated on day 21",15 [8 of 10 alive] and 31 % of control
same,survivor count,"dose: 1.25 mg/kg/injection, schedule: Q01DX010 (ip), vehicle: other",0 of 10 and 5 of 10
same,survivor count,"dose: 2.5 mg/kg/injection, schedule: Q01DX010 (ip), vehicle: other",5 of 10
same,survivor count,"dose: 2.5 mg/kg/injection, schedule: Q01DX011 (ip), vehicle: other",0 of 6
same,survivor count,"dose: 5.0 mg/kg/injection, schedule: Q01DX011 (ip), vehicle: other",0 of 6
CCOC(N)=O,T/C,"dose: 125.0 mg/kg/injection, schedule: Q01DX010 (ip), vehicle: saline, evaluated on day 21",127 % of control
same,survivor count,"dose: 1000.0 mg/kg/injection, schedule: Q01DX010 (ip), vehicle: saline",0 of 10 and 1 of 10
COC1=C(N)C(=O)c2nc(-c3nc(C(=O)O)c(C)c(-c4ccc(OC)c(OC)c4O)c3N)ccc2C1=O,survivor count,"dose: 0.68 mg/kg/injection, schedule: Q01DX010 (ip), vehicle: other",0 of 6
CN(N=O)C(=O)NC(C=O)C(O)C(O)C(O)CO (stereo not drawn),T/C,[1],133 % of control
same,survivor count,[2],0 of 10
same,survivor count,[3],0 of 10
NC(=O)N(CCCl)N=O,survivor count,"dose: 14.0 mg/kg/injection, schedule: Q01DX010 (ip), vehicle: carboxymethylcellulose (CMC)",0 of 10
CS(=O)(=O)OCCCl,survivor count,[4],3 of 10
same,survivor count,"dose: 400.0 mg/kg/injection, schedule: Q01DX010 (ip), vehicle: carboxymethylcellulose (CMC)",0 of 10
NC(Cc1ccc(N(CCCl)CCCl)cc1)C(=O)O (stereo not drawn),T/C,"dose: 0.31 mg/kg/injection, schedule: Q01DX010 (ip), vehicle: carboxymethylcellulose (CMC), evaluated on day 21",125 % of control
same,survivor count,"dose: 1.6 mg/kg/injection, schedule: Q01DX010 (ip), vehicle: saline",0 of 10
same,survivor count,"dose: 10.0 mg/kg/injection, schedule: Q01DX010 (ip), vehicle: carboxymethylcellulose (CMC)",0 of 10
same,survivor count,"dose: 12.5 mg/kg/injection, schedule: Q01DX010 (ip), vehicle: saline",0 of 10
same,survivor count,"dose: 20.0 mg/kg/injection, schedule: Q01DX010 (ip), vehicle: carboxymethylcellulose (CMC)",0 of 10
NC(=O)c1ccc(N)nc1,T/C,"dose: 0.63 mg/kg/injection, schedule: Q01DX010 (ip), vehicle: water, evaluated on day 21",149 % of control
same,survivor count,"dose: 2.5 mg/kg/injection, schedule: Q01DX010 (ip), vehicle: saline",5 of 10
same,survivor count,"dose: 5.0 mg/kg/injection, schedule: Q01DX010 (ip), vehicle: saline",0 of 10
CCN(CC)CCNc1ccc(C)c2sc3ccccc3c(=O)c12,T/C,"dose: 3.12 mg/kg/injection, schedule: Q01DX010 (ip), vehicle: methylcellulose (MC), evaluated on day 21",145 % of control [9 of 10 alive]
same,survivor count,"dose: 100.0 mg/kg/injection, schedule: Q01DX010 (ip), vehicle: methylcellulose (MC)",4 of 10
CCCCCCCCCCCCNCCCCCCCCCCCC,survivor count,"dose: 15.0 mg/kg/injection, schedule: Q01DX010 (ip), vehicle: carboxymethylcellulose (CMC)",0 of 10
same,survivor count,"dose: 30.0 mg/kg/injection, schedule: Q01DX010 (ip), vehicle: carboxymethylcellulose (CMC)",0 of 10
same,survivor count,"dose: 60.0 mg/kg/injection, schedule: Q01DX010 (ip), vehicle: carboxymethylcellulose (CMC)",0 of 10
O=c1cnn(C2OC(CO)C(O)C2O)c(=O)[nH]1 (stereo not drawn),survivor count,"dose: 500.0 mg/kg/injection, schedule: Q01DX010 (ip), vehicle: water",3 of 10
same,survivor count,"dose: 1000.0 mg/kg/injection, schedule: Q01DX010 (ip), vehicle: water",1 of 10
N[C@@H](Cc1ccc(N(CCCl)CCCl)cc1)C(=O)O,survivor count,"dose: 0.88 mg/kg/injection, schedule: Q01DX010 (ip), vehicle: saline",0 of 6
same,survivor count,"dose: 4.7 mg/kg/injection, schedule: Q01DX010 (ip), vehicle: saline",0 of 6
same,survivor count,"dose: 7.0 mg/kg/injection, schedule: Q01DX010 (ip), vehicle: saline",0 of 6
same,survivor count,"dose: 14.0 mg/kg/injection, schedule: Q01DX010 (ip), vehicle: saline",0 of 6
Nc1ncnc2[nH]ncc12,survivor count,"dose: 50.0 mg/kg/injection, schedule: Q01DX010 (ip), vehicle: carboxymethylcellulose (CMC)",0 of 10
CC(=O)N(C)C,survivor count,"dose: 2000.0 mg/kg/injection, schedule: Q01DX010 (ip), vehicle: saline",3 of 10
O=c1[nH]c(=O)n(C2CC(O)C(CO)O2)cc1F (stereo not drawn),survivor count,[4],0 of 10
Cn1cnc([N+](=O)[O-])c1Sc1nc(N)nc2nc[nH]c12,survivor count,"dose: 8.0 mg/kg/injection, schedule: Q01DX010 (ip), vehicle: carboxymethylcellulose (CMC)",0 of 10
same,survivor count,"dose: 16.0 mg/kg/injection, schedule: Q01DX010 (ip), vehicle: carboxymethylcellulose (CMC)",0 of 10
O=P1(N(CCCl)CCCl)NCCCO1 (stereo not drawn),T/C,"dose: 12.5 mg/kg/injection, schedule: Q01DX010 (ip), vehicle: saline, evaluated on day 20",37 % of control [9 of 10 alive]
same,T/C,"dose: 12.5 mg/kg/injection, schedule: Q01DX010 (ip), vehicle: saline, evaluated on day 21","8, 25, 47 % of control"
same,T/C,"dose: 25.0 mg/kg/injection, schedule: Q01DX010 (ip), vehicle: saline, evaluated on day 20",15 % of control
same,T/C,[1],3 [5 of 6 alive] and 5 % of control
same,survivor count,"dose: 40.0 mg/kg/injection, schedule: Q01DX010 (ip), vehicle: saline",0 of 10
same,survivor count,"dose: 50.0 mg/kg/injection, schedule: Q01DX010 (ip), vehicle: saline",5 of 10
same,survivor count,[2],0 of 10 and 0 of 6 (2×)
same,survivor count,[3],0 of 6
